Data on 62 compounds can be found in PubChem BioAssay AID445 (National Center for Advancing Translational Sciences (NCATS), 2006).

The structures appear in SMILES notation. The list shows a part of the results. The main result of the screen is listed elsewhere. These columns were measured beside it and carry no call. The list favours compounds with an active or inconclusive main result. Words in brackets tell the shape of the fitted curve; partial curves, single points and poor fits give uncertain potencies.

This assay in a line: IkB Signaling. As to conditions: ABC-DLBCL IkBa-CBG/CBR dual luciferase ratio (green luciferase fused to IkBa over red control in OCI-Ly3 lymphoma cells), 4 h; measured here: control luc red channel unless noted. In outline: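 Curves were fitted separately to fusion (green), unfused (red) and ratio luminescence, then classed by r2, magnitude and activity. Cells: OCI-Ly3, 4 h compound plus doxycycline at 37C; 10 uM MG-132 defined full response.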
One may read the AC50 as the concentration giving half of the maximal activity seen. On to `O=C(c1ccco1)N1CCN(C(=O)c2cc3sccc3n2Cc2ccccc2)CC1`, for which the AC50 is 20 µM [falling, partial curve]. Under `O=C(O)CCC(=O)N1CCc2cc(S(=O)(=O)NC3CCCc4ccccc43)ccc21` (configuration not stated) stands 10 µM [falling, partial curve]; under `Cc1cc(C)c(OCC(=O)Nc2cccc(NC(=O)c3ccco3)c2)c(Br)c1`, 2.51 µM [falling, full curve]. For `O=C(Cc1cccc([N+](=O)[O-])c1)NCc1nc2cccnc2n1Cc1ccc(F)cc1`, the AC50 was 31.6 µM [rising, single point] [measured here: IkB-luc green channel]. Consider `CC(=O)c1cccc(NC(=O)C2CCCN(c3nnc(-n4cccc4)s3)C2)c1` (configuration not stated), for which the AC50 is 31.6 µM [falling, single point]. Under `COC(=O)c1ccccc1NC(=O)C1CCCN(S(=O)(=O)c2ccc(OC)cc2)C1` (configuration not stated) stands 15.8 µM [falling, partial curve]; under `CCOC(=O)c1c(NC(=O)c2nn(CC)cc2Br)c(C#N)nn1-c1ccccc1`, 12.6 µM [falling, partial curve]; under `Cc1ccccc1-c1nc(CS(=O)(=O)CC(=O)N2CCN(c3ccccc3)CC2)c(C)o1`, 25.1 µM [falling, single point]. Under `CCc1ccc2oc(-c3cccc(NC(=O)c4ccc(N5CCC(C)CC5)c([N+](=O)[O-])c4)c3)nc2c1` stands 12.6 µM [falling, partial curve]; under `Cc1ccccc1CNC(=O)Cn1ncn2nc(-c3cccs3)cc2c1=O`, 0.0398 µM [rising, full curve]. With `CCOc1ccc(-c2nc(CSCC(=O)N3CCN(c4cccc(OC)c4)CC3)c(C)o2)cc1`, the AC50 was 10 µM [falling, partial curve].

Consider `Cc1cccc(CSc2cn(CC(=O)N3CCCC3)c3ccccc23)c1`, for which the AC50 is 15.8 µM [falling, partial curve]. With `CN(C)c1cc(O)c(C(=S)Nc2ccccc2)c(N(C)C)c1`, the AC50 was 15.8 µM [falling, partial curve]. Regarding `Cc1cc(N2CCCCC2)nc2ccc(NC(=O)/C=C/c3ccccc3OC(C)C)cc12`, the AC50 was 1 µM [falling, partial curve].

For the compound `Cc1ccc(NC(=O)c2oc3ccccc3c2NC(=O)c2cc3ccccc3o2)cc1`, the half-maximal activity concentration (AC50) is 6.31 µM [falling, partial curve]. Under `COC(=O)c1ccc(NC(=O)c2cc(S(=O)(=O)N3CCc4ccccc43)cn2C)cc1` stands 25.1 µM [falling, partial curve]. Turning to `CCOc1ccccc1NC(=O)Cn1cnc2onc(-c3ccc(F)cc3)c2c1=O`, the AC50 was 31.6 µM [falling, single point]. `O=C(OCc1cc(=O)n2nc(C3CC3)sc2n1)c1ccc(F)cc1`: the AC50 was 12.6 µM [falling, partial curve].

`COc1ccc(-n2c(=O)c3ccc(C(=O)NCc4ccc(C)cc4)cc3n(CC(=O)Nc3ccc(F)cc3)c2=O)cc1`: the AC50 is 10 µM [falling, full curve].

Take `O=C(NCc1cccnc1)C1CCN(Cc2cc3ccccc3n2Cc2cccc(Cl)c2)CC1`: the AC50 was 31.6 µM [falling, single point]. Next, `CCOC(=O)c1cc(C)n(CC2CCC(C(=O)Nc3ccc(Cl)cc3)CC2)c1C` (configuration not stated): 7.94 µM [falling, partial curve]; `CCC1CCc2nc3sc(C(=O)Nc4ccc(F)cc4F)c(N)c3cc2C1` (configuration not stated): 15.8 µM [falling, partial curve]; `O=C(Nc1ccc(CN2CCOCC2)cc1)c1cc2ccccc2o1`: 20 µM [falling, single point]. Next, `CC(=O)Nc1cccc(C(=O)NCc2ccc3c(c2)CCN3C(=O)c2ccccc2)c1`: 15.8 µM [falling, single point]; `COc1cc(OC)c(NC(=O)NC(C)c2c(-n3cccc3)sc(C)c2C)cc1Cl` (configuration not stated): 20 µM [falling, partial curve, poor fit]; `Cc1ccc2cccc(NC(=O)c3ccc(-c4cccc([N+](=O)[O-])c4)o3)c2n1`: 5.01 µM [falling, full curve]. For `CCCCNC(=O)CSc1nc2nc(C)c(Cc3ccccc3C)c(C)n2n1`, the AC50 was 20 µM [falling, single point].

In the case of `COc1cccc(C(=O)Nc2cc(-c3ccccc3)no2)c1`, the AC50 was 7.94 µM [falling, partial curve]. For the compound `Cc1c(-c2nc(N)nc(Nc3ccccc3)n2)oc2ccccc12`, the AC50 was 0.00631 µM [falling, full curve, poor fit]. In the case of `c1ccc2[nH]c(CSc3ncnc4c3oc3ccccc34)nc2c1`, the AC50 was 10 µM [falling, partial curve].

For the compound `COc1ccc(/C=C/c2nc(C#N)c(NCCc3ccc(OC)c(OC)c3)o2)cc1OC`, the AC50 is 15.8 µM [falling, single point]. Turning to `O=C(NCc1ccccc1)c1ccc2c(c1)CCN2S(=O)(=O)c1ccccc1`, the AC50 is 15.8 µM [falling, single point]. For the compound `CCC(=O)Nc1ccc(-c2nnc3c4ccccc4c(C)nn23)cc1`, the AC50 is 15.8 µM [rising, single point].

For the compound `Cc1ccc(NC(=O)CSc2nc(=O)n(CCCN(C)C)c3c2CCC3)cc1F`, the AC50 is 7.94 µM [rising, partial curve]. Under `CCCCC(CC)CNC(=O)C1CCC(CNS(=O)(=O)c2cccc3nsnc23)CC1` (configuration not stated) stands 5.01 µM [falling, partial curve]; under `Cc1cc(C)cc(OCCCn2c(CCNC(=O)C3CCCCC3)nc3ccccc32)c1`, 15.8 µM [falling, partial curve]. Next, `CC1CCN(S(=O)(=O)c2ccc(C(=O)Nc3sc4c(c3C(N)=O)CC(C)(C)NC4(C)C)cc2)CC1`: 0.0398 µM [falling, full curve, poor fit]; `Cc1cccc(C)c1-n1ncc(C(=O)N2CCN(c3ccccn3)CC2)c1C1CCN(C(=O)OC(C)(C)C)CC1`: 15.8 µM [falling, partial curve]; `COC(=O)CN1C(=O)COc2ccc(Cl)cc21`: 10 µM [falling, partial curve]. Take `COc1ccccc1NC(=O)N1CCc2[nH]c3ccc(Cl)cc3c2C1`: the AC50 was 3.98 µM [falling, partial curve]. Turning to `O=C(Nc1ccc2c(c1)OCCO2)c1ccc(S(=O)(=O)N2CCCCC2)cc1`, the AC50 was 31.6 µM [falling, single point]. Under `COc1cc(OC)c(NC(=O)NCc2ccc3c(c2)CCN3C(=O)c2ccccc2)cc1Cl` stands 2 µM [falling, full curve]; under `Nc1nnc(SCC(=O)Nc2ccc(F)c(Cl)c2)n1-c1ccccc1`, 15.8 µM [falling, partial curve]; under `CCc1ccccc1NC(=O)CSc1nc(-c2ccccc2OC)nc2c1Cc1c(CO)cnc(C)c1O2`, 3.16 µM [falling, full curve, poor fit].

`CC(=O)c1cc(C(=O)Nc2cc(C)cc(C)c2)c2ccccn12`: the AC50 is 20 µM [falling, partial curve, poor fit]. As to `Cc1ccc2c(c1)cc1c(=O)n(CC(=O)NC3CCCCC3)nc(C)n12`, the AC50 is 25.1 µM [falling, partial curve].

For the compound `O=C(CCSc1nc(-c2ccco2)cc(C(F)(F)F)n1)N1CCN(c2ccccn2)CC1`, the AC50 was 10 µM [falling, partial curve]. For the compound `Cc1cccn2c(=O)c3cc(C(=O)NCc4ccccc4)c(=N)n(CCOCCO)c3nc12`, the AC50 was 25.1 µM [falling, partial curve]. On to `O=C(Cn1cc(SCc2ccc(C(F)(F)F)cc2)c2ccccc21)N1CCCC1`, for which the AC50 is 20 µM [falling, partial curve].

For the compound `CCOC(=O)N1CCC(NC(=O)c2cnn(-c3cccc(Cl)c3C)c2C2CCN(C(=O)OC(C)(C)C)CC2)CC1`, the AC50 is 39.8 µM [falling, single point].

With `COc1cccc(CN2CCc3nc(N4CCN(c5ncccn5)CC4)ncc3C2)c1`, the AC50 is 31.6 µM [falling, single point]. Under `CSC1=C(C#N)C(c2ccc(Cl)cc2)C2=C(CC(C)(C)CC2=O)N1` (configuration not stated) stands 5.01 µM [falling, partial curve]. For the compound `COc1cc(S(=O)(=O)N2CCN(Cc3ccccc3)CC2)ccc1Br`, the AC50 was 20 µM [falling, partial curve]. Next, `CC(=O)c1ccc(NC(=O)CSc2cn(CC(=O)N3CCCCCC3)c3ccccc23)cc1`: 12.6 µM [falling, partial curve]; `COc1ccc(-c2cc(C(=O)NCc3ccc(F)cc3)c3c(-c4ccc(F)cc4)[nH]nc3n2)cc1OC`: 25.1 µM [falling, partial curve]; `COc1ccc(NC(=O)CSc2oc(-c3ccco3)nc2S(=O)(=O)c2ccc(Br)cc2)c(OC)c1`: 12.6 µM [falling, partial curve]. Under `CCc1ccc2oc(-c3cc(NC(=O)C(C)C)cc(C)c3O)nc2c1` stands 15.8 µM [falling, partial curve]; under `CCn1ccc2cc(S(=O)(=O)N3CCC(C(=O)NCCc4ccc(C)cc4)CC3)ccc21`, 15.8 µM [falling, partial curve]. On to `CCOC(=O)Cc1ccc(NS(=O)(=O)c2ccc(SC)cc2)cc1`, for which the AC50 was 10 µM [falling, partial curve].

For `CCC(C)NC(=O)c1ccc2nc(Cc3ccc(OC)cc3)oc2c1` (configuration not stated), the AC50 was 0.1 µM [rising, full curve]. Under `COc1cc(OC)cc(C(=O)NCC(c2cccs2)S(=O)(=O)c2ccc(F)c(C)c2)c1` (configuration not stated) stands 39.8 µM [falling, single point]; under `COc1ccccc1NC(=O)CN1C(=O)C2(SCC(=O)N2c2ccc(C)c(C)c2)c2ccccc21` (configuration not stated), 2.51 µM [falling, full curve].
